# Screening data, single-dose tests

By UniProt entry, the sequences of proteins in these tests, tags left out. Residues count along the entry.
UniProt Q8IDJ8, 1-583: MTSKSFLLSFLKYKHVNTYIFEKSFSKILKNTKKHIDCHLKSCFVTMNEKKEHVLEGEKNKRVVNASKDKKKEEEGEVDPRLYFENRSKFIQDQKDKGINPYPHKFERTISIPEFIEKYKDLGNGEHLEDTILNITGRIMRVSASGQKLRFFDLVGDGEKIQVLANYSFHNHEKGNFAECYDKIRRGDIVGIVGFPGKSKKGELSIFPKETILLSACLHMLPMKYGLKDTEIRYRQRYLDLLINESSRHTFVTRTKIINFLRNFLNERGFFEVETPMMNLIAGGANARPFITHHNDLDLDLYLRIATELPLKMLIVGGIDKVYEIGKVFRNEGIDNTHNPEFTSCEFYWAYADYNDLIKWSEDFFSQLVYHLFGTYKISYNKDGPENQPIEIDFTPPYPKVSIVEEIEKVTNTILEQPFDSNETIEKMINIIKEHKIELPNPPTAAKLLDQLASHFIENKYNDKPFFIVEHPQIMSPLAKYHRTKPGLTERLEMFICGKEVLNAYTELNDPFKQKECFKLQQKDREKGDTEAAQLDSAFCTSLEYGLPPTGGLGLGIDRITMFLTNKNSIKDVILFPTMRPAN
UniProt Q4DA54, 1-478: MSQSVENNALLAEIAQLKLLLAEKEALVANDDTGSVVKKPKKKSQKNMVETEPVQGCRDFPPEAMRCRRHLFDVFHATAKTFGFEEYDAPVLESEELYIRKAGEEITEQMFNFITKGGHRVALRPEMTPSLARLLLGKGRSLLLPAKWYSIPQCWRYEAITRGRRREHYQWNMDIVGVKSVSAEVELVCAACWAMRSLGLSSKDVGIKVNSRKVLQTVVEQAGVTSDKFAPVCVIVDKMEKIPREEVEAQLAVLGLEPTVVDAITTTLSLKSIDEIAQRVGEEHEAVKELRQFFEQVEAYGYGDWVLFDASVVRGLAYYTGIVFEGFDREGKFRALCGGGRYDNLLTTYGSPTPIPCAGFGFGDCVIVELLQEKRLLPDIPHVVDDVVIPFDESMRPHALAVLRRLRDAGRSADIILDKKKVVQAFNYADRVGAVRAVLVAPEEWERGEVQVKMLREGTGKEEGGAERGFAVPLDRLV

Measurements from “University of Dundee, Small-Polar-MMV Screening Library” (2021), ChEMBL document CHEMBL3988442.

Leishmania in macrophages: 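Cell assay of Leishmania donovani living inside macrophages; the read-out is not stated. Concentration: 30 µM. The record gives no direction; compounds that gave an IC50 in retests scored well above the rest, so higher reads as stronger inhibition. Of about 69,000 compounds tested this way, about 1,000 (1.5%) reached 50% or more in at least one test.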
T. brucei: 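Whole-parasite assay of Trypanosoma brucei over 72 hours; the read-out is not stated. Tested at 30 µM. Direction is inferred from retests: higher values go with stronger inhibition. Values scatter widely below zero; nearly all retest evidence comes from the higher of the two concentrations used. About 64,000 compounds were tested under these conditions; 1.5% (about 940) showed 50% or more at least once.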
Toxoplasma: 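Assay of Toxoplasma gondii numbers, read through their beta-galactosidase reporter with a colour substrate. Compounds at 10 µM. The record gives no direction; the compounds picked for IC50 retests had high values, so higher reads as fewer parasites. About 67,000 compounds were tested under these conditions; 0.38% (about 260) showed 50% or more at least once.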
PfKRS1: 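Enzyme assay of the cytosolic lysyl-tRNA synthetase in 384-well plates, read by luminescence. Target: Lysine-tRNA ligase, Plasmodium falciparum 3D7 (UniProt Q8IDJ8). Tested at 30 µM. Higher reads as stronger inhibition, judged from the few compounds that gave an IC50. Size under these conditions: about 69,000 compounds, about 49 of them at 50% or above in at least one test.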
TcHisRS: 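Histidine-tRNA ligase, Trypanosoma cruzi CL Brener (UniProt Q4DA54). Enzyme assay of histidyl-tRNA synthetase; the read-out is not stated. Compounds at 30 µM. The record gives no direction; compounds that gave an IC50 in retests scored well above the rest, so higher reads as stronger inhibition. About 69,000 compounds were tested under these conditions; 0.045% (about 31) showed 50% or more at least once.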

Results are given as percent effect. The controls that fix the scale are not given in the record; negative values are as filed. Compounds were drawn at random from those tested, without regard to their results. Two or more numbers in one place are separate tests of the same structure; such repeats can differ widely. A dash means the value is not listed here; it may have been measured.

SMILES | Leishmania in macrophages | T. brucei | Toxoplasma | PfKRS1 | TcHisRS
Cc1cnc(-c2nc(C3CCCN(Cc4ccccc4C)C3)no2)cn1.Cl (stereo unspecified) | 0.6695% | -19.46% | 18.17% | - | -
Cc1cnc(C)c(N2CCC(Cc3ccccc3Cl)(C(=O)O)CC2)n1 | 10.06% | 5.451% | -0.9855% | 2.525% | 0%
O=C(O)C(F)(F)F.O=C(O)C(F)(F)F.[H][C@@]12OCCN(Cc3nccs3)[C@@]1([H])CC[C@H]2OCCN1CCCC1 | 24.52% | -28.43% | 5.651% | - | -
COc1c(CNC2CCc3cc(F)ccc32)c(C)nn1C (stereo unspecified) | - | - | - | 3.014% | 1.901%
CC(=O)NC1CCCN(C(=O)NCc2ccc(-c3ccn[nH]3)cc2)C1 (stereo unspecified) | -3.131% | 10.81% | -8.349% | 1.891% | -1.515%
O=C(c1ccc2cccc(F)c2n1)N1CCN(CCn2cncn2)CC1 | 10.43% | -11.88% | -3.058% | 5.26% | 1.786%
c1nc(CNC2CCOCC2)c2n1CCCN(CC1CC1)C2 | - | - | - | -0.2932% | 5.882%
Cc1nc(N2CCC3(CCOC3)C2)c2cc[nH]c2n1 (stereo unspecified) | -30.01% | -83.01% | 2.163% | 2.653% | 2.597%
CC(C)CN1CCC2(CCN(Cc3ccc(F)cc3)CC2)C1=O | - | - | - | 3.15% | 6.796%
Cc1ccc(CN2CCC3(CCN(c4cnn(C)c4)C3=O)C2)s1 (stereo unspecified) | - | - | - | 8.784% | 7.563%
CCC(=O)N1CCC2(CC1)CC(CC(N)=O)c1ccc(F)cc12 (stereo unspecified) | 15.07% | -30.8% | 7.651% | 9.154% | 5.747%
Cc1ccc(CNCc2nnc3n2CCCC3C(F)(F)F)s1 (stereo unspecified) | 16.96% | 1.453% | -8.37% | 5.918% | 6.224%
CO[C@@H]1CC[C@@H](N(C)C(=O)c2cn3cc(C)ccc3n2)[C@H]1O | 17.76% | -2.113% | 16.64% | -0.5125% | 0.3831%
Cc1cn2c(n1)CCC(NC(=O)CNS(C)(=O)=O)C2 (stereo unspecified) | 9.994% | -23.47% | 8.488% | 4.689% | 8.333%
OC(COCc1cccs1)Cn1cc(Br)cn1 (stereo unspecified) | 2.121% | -11.9% | 5.62% | 6.598% | 8.808%
[H][C@]12CC[C@]([H])(CN(C(=O)CSc3ccncc3)C1)N(CC=C(C)C)C2 | 3.701% | - | -24.47% | - | -
CSCCC(=O)NCc1cc2n(n1)CCN(C(=O)N(C)C)C2 | 11.47% | -34.57% | -0.3014% | 8.937% | 1.98%
Cc1ncsc1CN1CCn2nc(CCC(=O)N3CCCC3)cc2C1 | 7.56% | -15.12% | 19.18% | 11.15% | 2.242%
CCn1ncc2c1C(COCC1CC1)CN(c1ccc(C)nn1)C2 (stereo unspecified) | - | - | - | 3.058% | -5.556%
Cc1nnc(NC(=O)CN2CCc3c(nc(C(C)C)n3C)C2)s1 | 6.755% | -10.26% | -0.2682% | -0.3199% | 5.128%
CCc1ncc2c(n1)CN(CC(=O)Nc1nnc(C)s1)CC2 | -17.9% | -11.28% | -1.891% | 6.64% | -1.132%
CC(C)Cn1cnnc1C1CCCN1C(=O)OC(C)(C)C (stereo unspecified) | 20.6% | -7.02% | 15.43% | -0.9765% | 6.077%
CS(=O)(=O)NC1CC2(CCN(CC3CC3)CC2)Oc2ccccc21.O=C(O)C(F)(F)F (stereo unspecified) | -11.36% | -17.06% | -18.57% | - | -
CC(C)c1cncnc1-c1cc(F)cc2c1OC(CN)C2 (stereo unspecified) | 29.82% | -48.14% | 1.386% | -0.1637% | 7.027%
COc1ccc(-c2cc[nH]n2)cc1CNC1CCCC1 | 15.71% | -0.1744% | -10.56% | -0.09063% | 3.911%
OC1(CN2CCOC(Cn3cccn3)C2)CCCCC1 (stereo unspecified) | 27.39% | - | -9.449% | 1.514% | 5.413%
Cc1cc(NCC(=O)N(C)Cc2cccs2)c(C(N)=O)cc1F | 19.15% | -14.78% | -3.895% | 6.591% | 12.71%
[H][C@]12CNCCN1C[C@@H](C(=O)OCC)[C@@H]2c1ccccc1 | 10.23% | -19.78% | -14.98% | - | -
O=C(O)C(F)(F)F.[H][C@@]12CCN(S(C)(=O)=O)[C@@]1([H])CCN2Cc1ccc2c(c1)OCO2 | 7.996% | -11.78% | -8.086% | - | -
CCCNC(=O)Nc1ccn(CCCOC)n1 | -21.52% | -34.52% | -0.6007% | -8.52% | -1.031%
COc1cc(OC)cc(C(=O)N2CCOCC2c2[nH]ncc2C)c1 (stereo unspecified) | -2.151% | 20.96% | -13.21% | -1.209% | 4.545%
CCOCC1CN(C(=O)COc2ccccc2)Cc2cn(C)nc21 (stereo unspecified) | 22.77% and 11.86% | -37.14% | 0% | -3.836% | 2.151%
N#Cc1cccnc1NCCNC(=O)NCCSC(F)(F)F | -2.254% | -18.8% | -3.269% | 0.3881% | -1.724%
CS(=O)(=O)NCC1CCN(C(=O)Oc2ccccc2)CC1 | 3.151% | -10.23% | -0.8218% | 4.328% | 2.439%
O=C(c1ccc(CN2CCCC2)cc1)N1CCCC(n2cccn2)C1 (stereo unspecified) | 7.583% | 15.24% | -0.6351% | 1.192% | 0%
Cc1cc2n(n1)CC(CNC1CCN(Cc3ccncc3)CC1)CN2 (stereo unspecified) | 2.182% | -50.16% | -5.391% | 0.99% | 8.14%
CC(C)NC(=O)[C@H]1C[C@@H]2CN(C(=O)NC(C)C)C[C@H]1O2 | - | - | - | 10.04% | 10.31%
CC(O)(CNS(=O)(=O)Cc1ccon1)c1ccsc1 (stereo unspecified) | 31.07% | -14.92% | 3.289% | 1.777% | 2.632%
CC(C)n1cc(S(=O)(=O)N2CCCCC2)cn1 | -15.01% | 19.39% | 1.913% | 3.487% | 1.639%
c1ccc(CN2CCN(C3CCOC4(CCOCC4)C3)CC2)nc1 (stereo unspecified) | -65.93% | -25.47% | -15.57% | -1.653% | 8.458%
Cc1ncnc2c1CCN(Cc1ccc3c(c1)OCO3)CC2 | - | - | - | 0.9947% | 4.132%
O=C(c1cccc(Oc2ccccc2)c1)N1CCCC(O)(CO)CC1 (stereo unspecified) | 11.4% | 11.56% | -0.3643% | 3.121% | 7.2%
Cc1cc(Br)oc1C(=O)N1CCCN(CC(N)=O)CC1 | 0.000875% | -37.24% | -8.092% | -0.9564% | 5.155%
O=C(O)C(F)(F)F.O=C(O)C(F)(F)F.O=C(O)C(F)(F)F.[H][C@@]12CN(CCOC)CCO[C@]1([H])CN(Cc1ccccn1)C2 | 18.58% | -49.84% | -11.92% | - | -
CC(NC(=O)CCS(=O)(=O)C1CCCC1)c1nc(-c2ccccc2)c[nH]1 (stereo unspecified) | 5.478% | -4.034% | 15.66% | 2.754% | 6.637%
COc1nccnc1N1CCN(Cc2cccc(C)c2)C(=O)C1 | -22.28% | -50.27% | 10.55% | 2.272% | 5.941%
Cc1noc(C)c1C(=O)Nc1ccc2ncn(CC(C)C)c(=O)c2c1 | 16.2% | -9.209% | - | -2.536% | 6.931%
[H][C@@]12CCCN1C[C@@H](CCSC)N(Cc1cnn(CC)c1C)C2 | 2.113% | -20.91% | -5.321% | - | -
CCN1CCC2(CN(C(=O)N(C)C)CC23CCNCC3)C1=O (stereo unspecified) | - | - | - | 3.442% | 7.767%
O=C([C@@H]1CCO[C@@H]2CCN(Cc3ccco3)C[C@H]21)N1CCCCO1 | - | - | - | -1.691% | 0.4975%
NC(=O)c1cc2c(nc1Oc1ccc(CN3CCCC3)cc1F)CCC2 | 20.47% | -52.61% | 22.62% | 1.468% | 7.296%
[H][C@@]12CS(=O)(=O)C[C@]1([H])N(C(=O)C1(C)CC1)CCN2Cc1[nH]cnc1C | 0.6931% | 1.317% | -3.604% | - | -
c1nc2c(c(NC3COC4(CCCC4)C3)n1)CCNCC2 (stereo unspecified) | -7.058% | -6.636% | 16.75% | -3.474% | 8.911%
Cc1cc(C)cc(CN2CCC3(CC2)CC(Nc2ncccn2)CO3)c1.O=C(O)C(F)(F)F (stereo unspecified) | 12.45% | -16.24% | 9.474% | - | -
Cc1ccc(CN2CCc3nnc(COCCN(C)C)n3CC2)o1.O=C(O)C(F)(F)F.O=C(O)C(F)(F)F | 12.42% | -5.489% | -1.033% | - | -
Cc1nc(CN2CCOC3(CCCN(c4nccs4)C3)C2)cs1 (stereo unspecified) | -13.89% | -9.419% | -0.5634% | 0.9521% | 1.961%

4 of the entries, repeated:

SMILES	Leishmania in macrophages	T. brucei	Toxoplasma	PfKRS1	TcHisRS
[H][C@@]12CS(=O)(=O)C[C@]1([H])N(C(=O)C1(C)CC1)CCN2Cc1[nH]cnc1C	0.6931%	1.317%	-3.604%	-	-
COc1cc(OC)cc(C(=O)N2CCOCC2c2[nH]ncc2C)c1 (stereo unspecified)	-2.151%	20.96%	-13.21%	-1.209%	4.545%
O=C(O)C(F)(F)F.O=C(O)C(F)(F)F.[H][C@@]12OCCN(Cc3nccs3)[C@@]1([H])CC[C@H]2OCCN1CCCC1	24.52%	-28.43%	5.651%	-	-
Cc1cc(NCC(=O)N(C)Cc2cccs2)c(C(N)=O)cc1F	19.15%	-14.78%	-3.895%	6.591%	12.71%